# Experimental data from PubChem BioAssay AID493014 (National Center for Advancing Translational Sciences (NCATS), 2011).
# “And” between values parts separate entries of the source, which are not always exact repeats. Equal values may be shown once. Some of the results follow. The main result of the screen is listed elsewhere. These columns were measured beside it and carry no call. Most of these compounds were active or inconclusive in the main read-out, so they are no random draw. The note in brackets gives the kind of curve behind each potency; many fits are weak.
# Experiment: qHTS Assay to Find Inhibitors of Chronic Active B-Cell Receptor Signaling
# Details: ABC-DLBCL IkBa-CBG/CBR reporter, luminescence ratio (green luciferase fused to IkBa over red control in TMD8 lymphoma cells), 4 h
# How it was run: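 Compounds up to 46 uM were incubated four hours with TMD8 cells whose green CBG68 luciferase is fused to IkappaBalpha; red CBR luminescence normalised the signal, and concentration-effect curves were fitted to fusion, red and ratio data.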
# [1] = measured here: CBR red luminescence, cell number
# [2] = measured here: IkBa-CBG green luminescence
SMILES,AC50 [1],AC50 [2]
O=C(c1cnc(N2CCN(c3ncccn3)CC2)c2ccccc12)N1CCN(c2ccccn2)CC1,"22.4 µM [falling, single point]",–
CCOC(=O)c1c(NC(=O)C2COc3ccccc3O2)sc(C(C)=O)c1C (configuration not stated),"32.6 µM [rising, single point]",–
CCOC(=O)c1cc([N+](=O)[O-])c([N+](=O)[O-])cc1NC(C)=O,"29.1 µM [falling, single point]",–
CCOC(=O)C1CCN(C(c2ccccn2)c2c(C)[nH]c3ccccc23)CC1 (configuration not stated),"1.64 µM [falling, full curve]",–
CC(C)(C)C1CCC(=NNC(=O)c2ccc(Br)o2)CC1 (configuration not stated),"29.1 µM [falling, single point]",–
COc1cccc(NC(=O)c2ccc3c(c2)N(CC(=O)N2CCCCC2)C(=O)C(C)(C)O3)c1,"12.6 µM [falling, partial curve, poor fit]",–
COc1ccc2c(c1)[nH]c1c(=O)n(CC3CCCO3)cnc12 (configuration not stated),"3.26 µM [falling, full curve, poor fit]",–
CCCN1CNC(=S)N(c2ccccc2C)C1,"35.5 µM [falling, single point]",–
CC(=O)c1c(C)[nH]c(C(=O)OCC(=O)Nc2ccc(Cl)c(S(=O)(=O)N(C)C)c2)c1C,"12.6 µM [falling, partial curve]",–
CC(C)(C)C(=O)/C=C/Nc1ccccc1O,"2.31 µM [falling, partial curve, poor fit]",–
CCc1ccc(CNC(=O)Cn2nc(-c3ccc(C)cc3)ccc2=O)cc1,"794 nM [rising, full curve, poor fit] and 35.5 µM [falling, partial curve, poor fit]",–
CCn1c(SCc2ccc(C#N)cc2)nnc1-c1ccc(S(=O)(=O)N2CCCCC2)cc1,"35.5 µM [falling, single point]",–
Cc1cccc(S(=O)(=O)c2c(N)n(/N=C/c3cccnc3)c3nc4ccccc4nc23)c1,"2.82 µM [falling, single point]",–
CNC(=S)N/N=C(\C)c1cccc(C(F)(F)F)c1,"14.1 µM [rising, single point]","25.1 µM [falling, single point]"
Cc1ccc(C2=C/C(=C/c3cccs3)C(=O)O2)cc1,"1.46 µM [falling, full curve]",–
COc1ccccc1N1CCN(C(=O)CCS(=O)(=O)c2ccc3c(c2)oc(=O)n3C)CC1,"20 µM [rising, single point]",–
Fc1ccc(-n2ncc3c(Nc4ccc5c(c4)OCCO5)ncnc32)cc1,"7.08 µM [falling, full curve]",–
NC(=O)COc1ccc2cc(-c3ccccc3)c(=O)oc2c1,"11.2 µM [falling, single point]",–
COc1cc(C=O)ccc1OCCOCCOc1cc(C)ccc1Cl,"10 µM [rising, partial curve]",–
Cc1nc(NC(=O)/C=C/c2ccccc2)sc1C(=O)NCCO,"2 µM [falling, full curve]",–
O=C(O)c1ccccc1SCc1cn2cc(Cl)ccc2n1,"0.708 µM [rising, partial curve, poor fit]",–

# In the list so far, ten contain sulfur:
SMILES,AC50 [1],AC50 [2]
CCOC(=O)c1c(NC(=O)C2COc3ccccc3O2)sc(C(C)=O)c1C (configuration not stated),"32.6 µM [rising, single point]",–
CCCN1CNC(=S)N(c2ccccc2C)C1,"35.5 µM [falling, single point]",–
CC(=O)c1c(C)[nH]c(C(=O)OCC(=O)Nc2ccc(Cl)c(S(=O)(=O)N(C)C)c2)c1C,"12.6 µM [falling, partial curve]",–
CCn1c(SCc2ccc(C#N)cc2)nnc1-c1ccc(S(=O)(=O)N2CCCCC2)cc1,"35.5 µM [falling, single point]",–
Cc1cccc(S(=O)(=O)c2c(N)n(/N=C/c3cccnc3)c3nc4ccccc4nc23)c1,"2.82 µM [falling, single point]",–
CNC(=S)N/N=C(\C)c1cccc(C(F)(F)F)c1,"14.1 µM [rising, single point]","25.1 µM [falling, single point]"
Cc1ccc(C2=C/C(=C/c3cccs3)C(=O)O2)cc1,"1.46 µM [falling, full curve]",–
COc1ccccc1N1CCN(C(=O)CCS(=O)(=O)c2ccc3c(c2)oc(=O)n3C)CC1,"20 µM [rising, single point]",–
Cc1nc(NC(=O)/C=C/c2ccccc2)sc1C(=O)NCCO,"2 µM [falling, full curve]",–
O=C(O)c1ccccc1SCc1cn2cc(Cl)ccc2n1,"0.708 µM [rising, partial curve, poor fit]",–

# More records

SMILES,AC50 [1],AC50 [2]
COc1ccc(-c2csc(-c3ccc(O)cc3)n2)cc1,–,"20 µM [falling, partial curve, poor fit]"
Cc1occc1-c1nnc(SCC(=O)Nc2nc(-c3ccccc3)cs2)o1,"13 µM [rising, partial curve, poor fit]",–
C/C=C/CSc1nc2c(c(=O)[nH]c(=O)n2C)n1C(C)C,"3.16 µM [rising, full curve, poor fit]",–
Cc1nc(-n2ncc(C#N)c2N)c2c3c(sc2n1)CCC3,"0.13 µM [rising, full curve, poor fit]",–
O=C(c1ccccc1)c1c2c(cc3sc4ccccc4[n+]13)-c1cccc3cccc-2c13,"29.1 µM [falling, single point]",–
COc1cccc(C(C2C(=O)CC(C)(C)CC2=O)C2C(=O)CC(C)(C)CC2=O)c1,"3.16 µM [rising, single point]",–
O=c1[nH]c2ccccc2nc1NCc1ccccc1,"12.6 µM [falling, single point]",–
O=C(Nc1nnc(-c2ccccc2F)s1)c1ccccc1F,"3.16 µM [falling, partial curve]",–
Clc1ccc(-c2nnc(-c3cccnc3)o2)cc1,"20 µM [rising, single point]",–
Cc1cccc(OCCC(=O)Nc2ccc(F)c(F)c2)c1,"3.55 µM [falling, partial curve, poor fit]",–
Cc1csc(NC(=O)CSc2nnc(-c3cc(C)on3)o2)n1,"29.1 µM [falling, single point]",–
COc1ccc(NC(=O)O/N=C/c2ccc(N(C)C)cc2)cc1,"35.5 µM [falling, single point]",–
CC(=O)N1N=C(c2ccc(C)cc2)OC1c1ccc(C)cc1 (configuration not stated),"14.6 µM [rising, partial curve, poor fit]",–
O=C(c1nc2n(n1)C(c1ccc(Cl)cc1)C=C(c1ccccc1)N2)N1CCOCC1 (configuration not stated),"6.51 µM [rising, single point]",–
CC(=O)c1nnn(-c2ccc([N+](=O)[O-])cc2C)c1C,"3.98 µM [rising, partial curve, poor fit]",–
Cc1cc(Cl)cc(Br)c1OCCCN1C(=O)NC(C)(C)C1=O,"29.1 µM [falling, single point]",–
CCOc1cccc2sc(N(CCN(C)C)C(=O)c3cc4ccccc4cc3OC)nc12,"12.6 µM [falling, partial curve, poor fit]","17.8 µM [rising, partial curve, poor fit]"
CCCN1C(=O)c2cc(C(=O)Nc3ccccc3C)ccc2C1Nc1ccccc1C (configuration not stated),"22.4 µM [falling, single point]",–
Cc1ccc(Nc2nnc(-c3ccncc3)s2)c(Br)c1,"11.6 µM [falling, partial curve]",–
COc1ccc(C(=O)Nc2ccc(Cl)cc2C(=O)N2CCOCC2)cc1,"7.08 µM [rising, partial curve, poor fit]",–
S=c1[nH]nc(-c2cc(-c3ccccc3)n[nH]2)n1/N=C/C(Br)=C/c1ccccc1,"12.6 µM [falling, single point]",–

# 3 entries out of the list, sorted by SMILES length, ascending:
SMILES,AC50 [1],AC50 [2]
Cc1nc(-n2ncc(C#N)c2N)c2c3c(sc2n1)CCC3,"0.13 µM [rising, full curve, poor fit]",–
CC(=O)N1N=C(c2ccc(C)cc2)OC1c1ccc(C)cc1 (configuration not stated),"14.6 µM [rising, partial curve, poor fit]",–
O=C(c1ccccc1)c1c2c(cc3sc4ccccc4[n+]13)-c1cccc3cccc-2c13,"29.1 µM [falling, single point]",–

# Later entries.

SMILES,AC50 [1],AC50 [2]
CN(C)c1cccc(C(=O)Nc2cccc(F)c2)c1,"0.651 µM [rising, full curve]",–
COC(=O)C(C#N)C(=C1C(=O)CC(C)(C)CC1=O)c1ccc(O)cc1 (configuration not stated),"29.1 µM [falling, single point]",–
COc1cc(C(=O)N2CCN(c3ncnc4sc(C)c(C)c34)CC2)cc(OC)c1OC,"28.2 µM [falling, partial curve, poor fit]",–
CCN(CC)c1nc(C)c(C(=S)Nc2cc([N+](=O)[O-])ccc2Cl)s1,"3.98 µM [rising, full curve]",–
COc1ccc(C(=O)COC(=O)CN2CC(=O)Oc3ccccc32)cc1Br,"18.4 µM [falling, partial curve]",–
CN(C(=S)NC(=O)Cc1ccccc1)c1ccccc1,"35.5 µM [falling, single point]","25.1 µM [falling, single point]"
COc1ccccc1C1C=C(c2ccc(C(C)C)cc2)Nc2nnnn21 (configuration not stated),"0.398 µM [rising, full curve, poor fit]",–
CCOC(=O)CC1C(=O)NCCN1c1nc2ccc(C)cn2c(=O)c1/C=C1\SC(=S)N(C(C)CC)C1=O (configuration not stated),"3.98 µM [falling, full curve, poor fit]",–
Cc1nc2cc(NC(=O)Nc3nccs3)ccc2n1C,"0.58 µM [falling, full curve, poor fit]",–
Cc1noc2ncnc(Sc3ccc(Br)cc3)c12,"2.82 µM [falling, partial curve, poor fit]",–
CC(=O)c1cccc(NC(=S)NNC(=O)c2ccco2)c1,"22.4 µM [falling, single point]",–
CCOc1ccc(NC(=NCc2ccc3c(c2)OCO3)SC2CC(=O)N(c3ccc(OCC)cc3)C2=O)cc1 (configuration not stated),"13 µM [rising, partial curve, poor fit]",–
CC(C)C[C@H]1CN=C(Nc2ccccc2)N1CCC(C)c1ccccc1 (some centres not stated),"29.1 µM [falling, single point]",–
Cc1nc2sc(-c3ccccc3)cc2c(=O)[nH]1,"7.31 µM [falling, partial curve]",–
CCN(CC)C(=O)Nc1ccc(C(=O)OC)cc1,"0.13 µM [falling, full curve, poor fit]",–
COc1ccccc1CCNC(=O)Cn1ccc2cc(S(=O)(=O)N3CCCC3)ccc21,"3.16 µM [falling, partial curve, poor fit]",–
CCCCCn1nc(C)c(/C=N/NC(=O)c2ccoc2C)c1C,"13 µM [falling, partial curve]",–
CCCn1c2c(c(O)c(C(=O)Nc3ccccc3)c1=O)CCCC2,"3.55 µM [rising, partial curve, poor fit]",–
O=c1c2oc3ccccc3c2[nH]c(=S)n1-c1ccccc1,"18.4 µM [falling, partial curve]",–
CCCc1[nH]nc2c1C1(CCN(C(=O)OCc3ccccc3)CC1)C(C#N)=C(N)O2,"7.08 µM [falling, partial curve, poor fit]",–
Cc1cccc(CSc2cccc3cccnc23)c1,"35.5 µM [falling, single point]","5.01 µM [falling, single point]"
